Where a name gives a salt, the structure may show the parent alone. The list shows a part of the results. Single values are uncertain, as repeats are few or missing.
Tests used:
[1] = test system: Caenorhabditis elegans ST65 (ncIs13[ajm-1::GFP]); assay: 'Larvae/adult' ratio (MetaXpress pharynx counts; minimum value 1, so it appears to include adults; growth inhibition read-out); conditions: 10 µM; exposure time: 4-5 days from L1 at 20°C
[2] = test system: Caenorhabditis elegans ST65 (ncIs13[ajm-1::GFP]); assay: vulvae per adult worm (MAPK/ERK-dependent vulval induction, MetaXpress) (vulvae/adult); higher = more vulval induction (less MAPK/ERK inhibition); conditions: 10 µM; exposure time: 4-5 days from L1 at 20°C

Row | SMILES | 'Larvae/adult' ratio [1] | vulvae per adult worm [2]
1 | CCN(CC)CCCC(C)Nc1ccnc2cc(Cl)ccc12 (centres undefined) [Chloroquine Phosphate] | 2 | 0.95
2 | C=CC(=O)N1CCC[C@@H](n2nc(-c3ccc(Oc4ccccc4)cc3)c3c(N)ncnc32)C1 | 1.71 | 1.11
3 | CN(C(=O)c1ccc(F)cc1C(F)(F)F)C1CCN(c2nnc(-c3ccnn3C)c3ccccc23)CC1 | 3.2 | 1.25
4 | COc1cc(N2CCN(C)CC2)ccc1Nc1nccc(-c2cn(C)c3cnccc23)n1 | 1.49 | 0.122
5 | COCC(=O)Nc1cc(Sc2ccccc2)ccc1N=C(NC(=O)OC)NC(=O)OC [Febantel] | 1.59 | 1.03
6 | O=C(c1cc(Cc2n[nH]c(=O)c3ccccc23)ccc1F)N1CCN(C(=O)C2CC2)CC1 | 2.36 | 0.84
7 | Cc1ccc(-n2nc(C(C)(C)C)cc2NC(=O)Nc2ccc(OCCN3CCOCC3)c3ccccc23)cc1 [Doramapimod (BIRB 796)] | 1.56 | 0.778
8 | C[C@@H]1COCCN1c1cc(C2([S@](C)(=N)=O)CC2)nc(-c2cc[nH]c3nccc2-3)n1 | 1.85 | 0.735
9 | Cc1ccc(=O)n(-c2ccccc2)c1 [Pirfenidone] | 1.67 | 1
10 | NC(=O)NO [Hydroxyurea] | 1.67 | 1
11 | Cc1ncc(-c2ccnc(Nc3ccc(S(C)(=O)=O)cc3)n2)n1C(C)C | 5.08 | 1.38
12 | C[C@H]1CNCCCN1S(=O)(=O)c1cccc2cncc(F)c12 [Ripasudil (K-115) hydrochloride dihydrate] | 2.33 | 1.09
13 | CC1(N)CCN(c2cnc(-c3cccc(Cl)c3Cl)c(N)n2)CC1 [SHP099 dihydrochloride] | 1.72 | 0.86
14 | CC[C@@H]1C(=O)N(C)c2cnc(Nc3ccc(C(=O)NC4CCN(C)CC4)cc3OC)nc2N1C1CCCC1 | 2.55 | 1
15 | COc1cc2c(NC3CCN(C(C)C)CC3)nc(C3CCCCC3)nc2cc1OCCCN1CCCC1 | 3 | 0.759
16 | O=C(CCNC(=O)c1ccc(OC(F)(F)F)cc1)N[C@@H]1CCCc2ccccc21 | 2.2 | 1.07

Row | SMILES | 'Larvae/adult' ratio [1] | vulvae per adult worm [2]
17 | NCCNc1ccc(NCCN)c2c1C(=O)c1ccncc1C2=O [Pixantrone Maleate] | 1.96 | 1
18 | Nc1ccn([C@@H]2O[C@H](CO)[C@@H](O)C2(F)F)c(=O)n1 [Gemcitabine] | 1.1 | 0.9
19 | C#Cc1cccc(Nc2ncnc3cc4c(cc23)OCCOCCOCCO4)c1 [Icotinib] | 4.8 | 0.8
20 | O=C(NC1CCNCC1)c1n[nH]cc1NC(=O)c1c(Cl)cccc1Cl | 2.09 | 0.914
21 | CC[C@@H]1C(=O)OC[C@@H]1Cc1cncn1C [Pilocarpine HCl] | 1.8 | 0.9
22 | NC(=O)c1cccc2cn(-c3ccc([C@@H]4CCCNC4)cc3)nc12 [Niraparib (MK-4827)] | 1.57 | 0.925
23 | CCCOc1ccn2c(C(C)=O)cc(-c3ccccc3S(C)(=O)=O)c2c1 | 3.29 | 1.76
24 | Nc1nc2[nH]cnc2c(=S)[nH]1 [Thioguanine] | 1.75 | 0.938
25 | COc1cc2ncnc(Nc3cccc(Cl)c3F)c2cc1OC(=O)N1CCN(C)C[C@H]1C | 1.4 | 0.743
26 | COC(=O)C[C@](O)(CCCC(C)(C)O)C(=O)O[C@@H]1C(OC)=C[C@]23CCCN2CCc2cc4c(cc2[C@H]13)OCO4 [Homoharringtonine] | 2.44 | 1.08
27 | Cc1cc(Nc2cc(N3CCN(C)CC3)nc(Sc3ccc(NC(=O)C4CC4)cc3)n2)n[nH]1 [Tozasertib (VX-680, MK-0457)] | 2.33 | 0.822
28 | COc1cc2ncnc(Oc3cccc(NC(=O)Nc4cc(C(C)(C)C(F)(F)F)on4)c3)c2cc1OC | 1.61 | 0.773
29 | CC[C@@]1(O)C(=O)OCc2c1cc1n(c2=O)Cc2cc3c(CN(C)C)c(O)ccc3nc2-1 [Topotecan HCl] | 1.91 | 0.953
30 | N#Cc1ccc2ncnc(NCCc3ccccc3)c2c1 [Senexin A] | 3.29 | 1.43
31 | NC[C@@](O)(c1ccc(Cl)cc1)c1ccc(-c2cn[nH]c2)cc1 | 2.23 | 1.31
32 | FC(F)(F)c1ccc(/C=C/c2nc(COc3ccc(CCCCn4ccnn4)cc3)co2)cc1 [Mubritinib (TAK 165)] | 2.45 | 0.935

Quoted from the listing:
For vulvae per adult worm [2], `C#Cc1cccc(Nc2ncnc3cc4c(cc23)OCCOCCOCCO4)c1` [Icotinib] has the entry 0.8
For vulvae per adult worm [2], `CCN(CC)CCCC(C)Nc1ccnc2cc(Cl)ccc12` (centres undefined) [Chloroquine Phosphate] has the entry 0.95

From the supplement of paper PMC11409438
